Results: paper PMC5839696
These are yes or no findings as the source states them, for the method shown. In cells and extracts the contact can be indirect. Some binding calls cover weakened binding; strength is not graded here.

Amino acid sequences for entries named in this document (tags omitted). A change or cut given only in a name is not applied to a line headed by its entry. Chains listed by the source or under a name are the forms on record and can include a tag or linker.
ADGRG2 (adhesion G-protein-coupled receptor G2) (mouse (endogenous in efferent ductules)) (Q8CJ12, form named): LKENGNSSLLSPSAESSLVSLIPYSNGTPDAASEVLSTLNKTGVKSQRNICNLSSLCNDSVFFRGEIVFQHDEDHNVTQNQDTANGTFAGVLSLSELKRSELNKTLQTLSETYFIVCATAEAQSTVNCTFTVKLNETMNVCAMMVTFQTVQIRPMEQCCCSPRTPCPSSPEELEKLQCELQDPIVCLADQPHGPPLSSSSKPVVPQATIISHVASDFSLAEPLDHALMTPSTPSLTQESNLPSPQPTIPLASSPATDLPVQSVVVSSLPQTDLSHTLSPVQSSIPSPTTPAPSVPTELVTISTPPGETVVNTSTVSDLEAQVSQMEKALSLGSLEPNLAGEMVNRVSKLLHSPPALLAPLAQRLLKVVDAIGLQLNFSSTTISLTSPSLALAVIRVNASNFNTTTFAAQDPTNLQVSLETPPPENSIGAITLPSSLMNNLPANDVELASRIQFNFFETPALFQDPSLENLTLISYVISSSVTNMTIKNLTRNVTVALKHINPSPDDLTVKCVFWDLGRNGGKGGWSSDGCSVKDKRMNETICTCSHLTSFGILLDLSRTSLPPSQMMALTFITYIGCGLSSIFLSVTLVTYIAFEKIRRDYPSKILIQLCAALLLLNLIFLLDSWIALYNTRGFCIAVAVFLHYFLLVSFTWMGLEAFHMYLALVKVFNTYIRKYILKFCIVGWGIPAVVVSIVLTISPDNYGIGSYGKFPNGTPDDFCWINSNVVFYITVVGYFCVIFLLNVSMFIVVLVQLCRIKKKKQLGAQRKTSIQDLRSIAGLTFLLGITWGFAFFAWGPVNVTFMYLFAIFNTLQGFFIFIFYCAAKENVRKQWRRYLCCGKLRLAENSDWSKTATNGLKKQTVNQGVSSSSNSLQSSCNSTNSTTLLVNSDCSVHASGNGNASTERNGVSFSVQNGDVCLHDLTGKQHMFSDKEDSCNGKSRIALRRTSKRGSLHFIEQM
UniProt P49407: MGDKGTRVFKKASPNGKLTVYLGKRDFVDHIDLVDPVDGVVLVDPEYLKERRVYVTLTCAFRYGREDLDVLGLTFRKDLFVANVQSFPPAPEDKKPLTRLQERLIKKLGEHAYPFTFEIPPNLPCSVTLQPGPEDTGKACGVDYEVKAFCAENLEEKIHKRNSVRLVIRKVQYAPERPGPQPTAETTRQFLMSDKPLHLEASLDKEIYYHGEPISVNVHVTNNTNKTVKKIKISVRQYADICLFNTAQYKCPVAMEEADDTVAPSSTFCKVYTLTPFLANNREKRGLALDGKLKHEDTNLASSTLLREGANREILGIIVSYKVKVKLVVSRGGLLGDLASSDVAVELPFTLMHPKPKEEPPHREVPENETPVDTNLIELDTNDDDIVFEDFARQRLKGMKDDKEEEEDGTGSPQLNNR
UniProt P21279: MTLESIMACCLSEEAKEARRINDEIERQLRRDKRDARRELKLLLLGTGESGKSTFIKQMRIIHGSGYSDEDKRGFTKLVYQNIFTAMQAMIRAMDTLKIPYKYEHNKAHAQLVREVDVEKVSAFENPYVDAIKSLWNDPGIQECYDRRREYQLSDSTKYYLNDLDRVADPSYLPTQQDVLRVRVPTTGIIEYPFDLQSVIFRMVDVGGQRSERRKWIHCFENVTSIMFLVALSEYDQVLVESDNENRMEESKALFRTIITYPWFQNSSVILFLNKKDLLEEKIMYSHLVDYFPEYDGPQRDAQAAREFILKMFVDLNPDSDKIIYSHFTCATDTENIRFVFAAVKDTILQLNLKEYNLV

How the values were obtained:
[1] = target: Flag-ADGRG2 (ADGRG2 full-length, ADGRG2FL) (mouse) (UniProt Q8CJ12); assay: co-IP; HEK293 cells transfected with equal amounts of plasmids encoding ADGRG2, CFTR, β-arrestin-1 or β-arrestin-2; Flag-ADGRG2 pulled down with M2-Flag beads, western blot
[2] = target: ADGRG2 (adhesion G-protein-coupled receptor G2) (mouse (endogenous in efferent ductules)) (UniProt Q8CJ12); assay: co-IP; efferent ductules of WT mice (Adgrg2-/Y mice as control) and of Arrb2-/- mice; proteins cross-linked with 2.5 mM DSP, tissue lysed, anti-ADGRG2 antibody (AF7977) and Protein A/G PLUS-Agarose at 4°C, western blot

Substance	binding [1]	binding [2]
β-arrestin-1 (overexpressed in HEK293 cells) (from UniProt P49407 1-418)	binds	–
Gq (from UniProt P21279 1-359)	–	binds
